Among the data in the supplement of paper PMC10849652 are log2 fold change values, retold here.

Chains of the proteins cited; added tags and fusions are not shown. Lines headed by an entry give the natural chain unless they say otherwise; changes in a name come on top.
UniProt Q9H0C8: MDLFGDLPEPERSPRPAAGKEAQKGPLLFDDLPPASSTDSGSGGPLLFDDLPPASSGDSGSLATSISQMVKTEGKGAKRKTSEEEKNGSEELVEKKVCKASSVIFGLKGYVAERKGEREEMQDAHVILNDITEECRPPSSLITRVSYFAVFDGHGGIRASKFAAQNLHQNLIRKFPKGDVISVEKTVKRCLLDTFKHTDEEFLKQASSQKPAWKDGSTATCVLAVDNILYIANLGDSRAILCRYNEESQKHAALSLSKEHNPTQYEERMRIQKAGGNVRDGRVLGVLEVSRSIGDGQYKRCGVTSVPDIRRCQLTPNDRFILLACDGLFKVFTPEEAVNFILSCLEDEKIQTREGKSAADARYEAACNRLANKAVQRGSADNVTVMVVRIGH
UniProt P05362: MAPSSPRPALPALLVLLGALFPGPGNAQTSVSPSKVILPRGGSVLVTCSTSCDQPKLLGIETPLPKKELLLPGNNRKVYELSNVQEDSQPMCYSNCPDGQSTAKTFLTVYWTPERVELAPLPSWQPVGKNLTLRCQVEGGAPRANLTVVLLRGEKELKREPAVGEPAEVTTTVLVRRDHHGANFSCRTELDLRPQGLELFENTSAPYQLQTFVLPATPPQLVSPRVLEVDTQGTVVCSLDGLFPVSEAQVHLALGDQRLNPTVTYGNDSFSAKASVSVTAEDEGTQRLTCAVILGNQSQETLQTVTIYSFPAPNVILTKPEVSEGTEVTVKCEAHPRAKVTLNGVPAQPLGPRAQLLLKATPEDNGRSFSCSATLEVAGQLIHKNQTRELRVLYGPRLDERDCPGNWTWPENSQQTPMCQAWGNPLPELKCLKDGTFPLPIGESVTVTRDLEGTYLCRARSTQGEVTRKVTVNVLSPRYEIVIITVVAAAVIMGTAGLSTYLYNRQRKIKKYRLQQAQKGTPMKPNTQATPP
UniProt O43837: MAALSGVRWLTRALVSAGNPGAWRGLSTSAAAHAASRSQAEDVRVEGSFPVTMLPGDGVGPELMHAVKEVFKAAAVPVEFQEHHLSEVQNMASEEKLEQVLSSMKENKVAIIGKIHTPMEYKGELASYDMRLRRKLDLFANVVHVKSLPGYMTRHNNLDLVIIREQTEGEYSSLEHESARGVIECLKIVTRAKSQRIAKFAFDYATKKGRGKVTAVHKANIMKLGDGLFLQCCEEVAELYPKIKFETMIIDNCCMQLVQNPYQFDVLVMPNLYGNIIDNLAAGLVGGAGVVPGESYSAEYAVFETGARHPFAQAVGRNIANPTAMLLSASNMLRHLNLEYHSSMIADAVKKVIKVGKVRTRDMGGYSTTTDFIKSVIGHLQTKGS
UniProt Q969P0: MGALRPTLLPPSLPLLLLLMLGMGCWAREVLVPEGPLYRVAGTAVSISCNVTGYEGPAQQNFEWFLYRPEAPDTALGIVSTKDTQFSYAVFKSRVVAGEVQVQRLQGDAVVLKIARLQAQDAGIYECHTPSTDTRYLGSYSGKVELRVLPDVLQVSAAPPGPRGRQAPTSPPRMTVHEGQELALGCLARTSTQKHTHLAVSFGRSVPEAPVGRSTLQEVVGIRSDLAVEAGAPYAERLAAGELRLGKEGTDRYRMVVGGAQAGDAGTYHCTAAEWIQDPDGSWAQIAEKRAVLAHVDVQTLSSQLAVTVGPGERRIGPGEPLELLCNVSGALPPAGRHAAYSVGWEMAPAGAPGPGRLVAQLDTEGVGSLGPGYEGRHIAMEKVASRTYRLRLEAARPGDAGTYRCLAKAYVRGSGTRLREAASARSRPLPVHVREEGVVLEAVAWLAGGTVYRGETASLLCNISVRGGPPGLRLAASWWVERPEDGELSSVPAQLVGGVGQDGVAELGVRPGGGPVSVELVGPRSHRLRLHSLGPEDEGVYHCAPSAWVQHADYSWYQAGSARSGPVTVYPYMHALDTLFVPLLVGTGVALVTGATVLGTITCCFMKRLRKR
UniProt A1L0T0: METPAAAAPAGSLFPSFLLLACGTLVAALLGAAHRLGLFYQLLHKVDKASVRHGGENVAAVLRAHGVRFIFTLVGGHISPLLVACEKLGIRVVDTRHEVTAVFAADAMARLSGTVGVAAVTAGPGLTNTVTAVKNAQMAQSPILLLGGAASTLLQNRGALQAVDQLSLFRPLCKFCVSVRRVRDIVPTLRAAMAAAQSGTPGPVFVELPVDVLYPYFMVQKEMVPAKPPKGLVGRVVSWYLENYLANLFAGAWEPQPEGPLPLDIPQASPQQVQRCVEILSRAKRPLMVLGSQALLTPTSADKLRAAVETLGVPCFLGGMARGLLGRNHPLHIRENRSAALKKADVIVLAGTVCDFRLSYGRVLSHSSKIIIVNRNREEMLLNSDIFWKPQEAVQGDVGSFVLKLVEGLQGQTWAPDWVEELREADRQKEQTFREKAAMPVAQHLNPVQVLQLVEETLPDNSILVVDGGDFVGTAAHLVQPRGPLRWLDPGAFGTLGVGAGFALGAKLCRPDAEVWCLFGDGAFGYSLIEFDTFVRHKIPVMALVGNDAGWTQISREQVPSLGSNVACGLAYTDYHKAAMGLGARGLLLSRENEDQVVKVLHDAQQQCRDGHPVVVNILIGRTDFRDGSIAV
UniProt O75874, whole entry, looked up: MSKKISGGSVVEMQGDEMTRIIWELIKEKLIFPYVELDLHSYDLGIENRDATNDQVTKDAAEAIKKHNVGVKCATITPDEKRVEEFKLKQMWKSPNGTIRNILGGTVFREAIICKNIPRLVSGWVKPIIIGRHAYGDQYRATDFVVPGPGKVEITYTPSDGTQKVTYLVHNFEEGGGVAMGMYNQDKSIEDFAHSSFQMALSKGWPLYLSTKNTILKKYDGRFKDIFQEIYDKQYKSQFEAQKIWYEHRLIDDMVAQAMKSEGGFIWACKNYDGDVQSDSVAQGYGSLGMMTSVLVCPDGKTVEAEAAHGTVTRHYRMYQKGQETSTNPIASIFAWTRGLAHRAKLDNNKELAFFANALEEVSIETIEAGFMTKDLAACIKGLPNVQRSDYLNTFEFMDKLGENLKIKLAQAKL
UniProt Q08334: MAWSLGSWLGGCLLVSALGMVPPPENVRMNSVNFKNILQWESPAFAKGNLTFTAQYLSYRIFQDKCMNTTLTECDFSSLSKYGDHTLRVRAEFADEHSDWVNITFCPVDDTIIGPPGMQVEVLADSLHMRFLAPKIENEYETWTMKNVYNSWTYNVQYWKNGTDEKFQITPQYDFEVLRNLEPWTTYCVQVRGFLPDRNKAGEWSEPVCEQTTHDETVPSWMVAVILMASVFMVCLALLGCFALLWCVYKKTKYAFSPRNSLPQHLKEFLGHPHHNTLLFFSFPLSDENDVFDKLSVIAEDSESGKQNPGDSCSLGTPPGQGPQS
UniProt P51553: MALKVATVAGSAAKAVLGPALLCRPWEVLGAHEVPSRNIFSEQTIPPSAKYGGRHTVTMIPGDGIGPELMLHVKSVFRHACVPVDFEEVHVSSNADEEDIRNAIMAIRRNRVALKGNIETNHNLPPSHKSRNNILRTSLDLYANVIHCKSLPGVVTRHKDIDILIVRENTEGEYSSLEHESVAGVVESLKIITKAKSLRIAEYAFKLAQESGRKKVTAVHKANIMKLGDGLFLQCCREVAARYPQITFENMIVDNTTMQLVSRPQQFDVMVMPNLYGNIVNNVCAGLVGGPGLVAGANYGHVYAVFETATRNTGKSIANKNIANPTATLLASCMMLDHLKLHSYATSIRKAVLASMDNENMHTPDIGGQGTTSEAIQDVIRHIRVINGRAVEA
UniProt P78318: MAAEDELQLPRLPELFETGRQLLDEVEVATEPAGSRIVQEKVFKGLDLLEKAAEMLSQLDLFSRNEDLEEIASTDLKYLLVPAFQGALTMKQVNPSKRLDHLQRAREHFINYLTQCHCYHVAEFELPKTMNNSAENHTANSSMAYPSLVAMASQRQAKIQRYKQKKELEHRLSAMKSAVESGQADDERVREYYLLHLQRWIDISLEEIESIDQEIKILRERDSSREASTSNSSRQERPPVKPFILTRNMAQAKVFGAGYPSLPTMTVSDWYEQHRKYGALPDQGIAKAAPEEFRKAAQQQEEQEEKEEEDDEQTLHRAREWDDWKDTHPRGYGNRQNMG
UniProt Q9NX55: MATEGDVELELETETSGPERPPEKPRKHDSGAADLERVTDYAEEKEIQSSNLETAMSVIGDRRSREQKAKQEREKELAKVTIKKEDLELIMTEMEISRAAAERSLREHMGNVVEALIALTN
UniProt Q96LB3: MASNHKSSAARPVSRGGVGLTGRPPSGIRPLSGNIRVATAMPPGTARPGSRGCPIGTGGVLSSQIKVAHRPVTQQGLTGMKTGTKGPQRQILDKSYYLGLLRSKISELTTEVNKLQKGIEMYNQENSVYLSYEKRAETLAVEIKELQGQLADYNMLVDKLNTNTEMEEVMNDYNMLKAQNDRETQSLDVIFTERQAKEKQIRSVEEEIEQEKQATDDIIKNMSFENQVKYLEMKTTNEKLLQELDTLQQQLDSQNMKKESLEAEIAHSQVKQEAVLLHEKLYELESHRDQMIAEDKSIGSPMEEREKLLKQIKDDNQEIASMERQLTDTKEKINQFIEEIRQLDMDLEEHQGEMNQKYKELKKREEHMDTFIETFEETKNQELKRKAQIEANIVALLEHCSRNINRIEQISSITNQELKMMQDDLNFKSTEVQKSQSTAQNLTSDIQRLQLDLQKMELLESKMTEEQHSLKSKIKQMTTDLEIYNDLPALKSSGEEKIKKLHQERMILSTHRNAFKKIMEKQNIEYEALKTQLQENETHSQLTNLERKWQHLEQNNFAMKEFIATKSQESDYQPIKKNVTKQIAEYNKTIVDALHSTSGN
UniProt Q9Y4L1: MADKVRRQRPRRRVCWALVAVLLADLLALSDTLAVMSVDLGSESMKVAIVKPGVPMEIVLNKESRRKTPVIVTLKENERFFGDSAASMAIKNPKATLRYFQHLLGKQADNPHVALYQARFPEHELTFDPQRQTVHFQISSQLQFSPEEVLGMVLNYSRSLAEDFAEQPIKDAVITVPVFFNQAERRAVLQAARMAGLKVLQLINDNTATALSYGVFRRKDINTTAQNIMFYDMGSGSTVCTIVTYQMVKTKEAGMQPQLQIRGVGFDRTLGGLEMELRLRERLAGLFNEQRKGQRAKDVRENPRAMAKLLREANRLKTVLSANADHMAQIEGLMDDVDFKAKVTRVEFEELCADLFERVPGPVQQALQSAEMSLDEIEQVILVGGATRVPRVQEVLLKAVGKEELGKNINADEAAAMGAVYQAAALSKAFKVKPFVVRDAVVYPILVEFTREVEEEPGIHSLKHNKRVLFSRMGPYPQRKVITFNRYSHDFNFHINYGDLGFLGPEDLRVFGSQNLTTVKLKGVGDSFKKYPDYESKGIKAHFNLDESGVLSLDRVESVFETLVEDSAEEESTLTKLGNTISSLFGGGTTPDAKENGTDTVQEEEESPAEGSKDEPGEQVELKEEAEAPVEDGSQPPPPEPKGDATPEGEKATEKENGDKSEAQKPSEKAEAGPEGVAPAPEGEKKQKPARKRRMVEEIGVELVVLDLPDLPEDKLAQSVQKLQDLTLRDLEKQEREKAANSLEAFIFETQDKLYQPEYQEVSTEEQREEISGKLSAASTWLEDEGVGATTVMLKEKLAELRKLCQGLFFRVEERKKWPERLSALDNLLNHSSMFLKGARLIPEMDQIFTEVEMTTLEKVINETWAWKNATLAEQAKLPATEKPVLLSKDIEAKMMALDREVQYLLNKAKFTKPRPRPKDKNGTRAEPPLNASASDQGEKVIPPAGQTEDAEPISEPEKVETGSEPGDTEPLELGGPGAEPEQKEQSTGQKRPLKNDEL
UniProt Q13123, whole entry, looked up: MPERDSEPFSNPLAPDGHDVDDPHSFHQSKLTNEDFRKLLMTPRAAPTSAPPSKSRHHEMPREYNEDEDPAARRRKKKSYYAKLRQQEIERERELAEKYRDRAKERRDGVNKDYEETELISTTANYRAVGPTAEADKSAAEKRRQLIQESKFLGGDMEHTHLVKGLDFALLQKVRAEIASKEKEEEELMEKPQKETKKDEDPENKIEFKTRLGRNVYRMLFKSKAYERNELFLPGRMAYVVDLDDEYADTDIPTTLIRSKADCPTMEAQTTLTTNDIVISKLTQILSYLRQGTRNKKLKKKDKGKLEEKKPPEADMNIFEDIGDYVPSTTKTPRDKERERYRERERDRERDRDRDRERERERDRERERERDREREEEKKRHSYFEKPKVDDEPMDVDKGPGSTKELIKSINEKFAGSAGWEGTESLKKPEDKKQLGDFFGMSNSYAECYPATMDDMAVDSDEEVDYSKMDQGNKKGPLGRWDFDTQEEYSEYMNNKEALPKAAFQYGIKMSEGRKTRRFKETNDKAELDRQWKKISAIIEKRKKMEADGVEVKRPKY
UniProt O60921: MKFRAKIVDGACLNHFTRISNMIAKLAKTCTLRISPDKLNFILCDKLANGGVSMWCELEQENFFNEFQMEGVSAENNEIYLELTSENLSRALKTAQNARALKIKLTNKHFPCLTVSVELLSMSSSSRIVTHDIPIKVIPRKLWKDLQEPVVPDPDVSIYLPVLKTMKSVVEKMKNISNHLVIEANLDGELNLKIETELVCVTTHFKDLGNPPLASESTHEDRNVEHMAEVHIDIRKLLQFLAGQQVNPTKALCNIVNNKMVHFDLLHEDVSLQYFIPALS

The other results are listed elsewhere or left out.

Compound in one test: NC(=O)Nc1cc(-c2cccc(F)c2)sc1C(=O)N[C@H]1CCCNC1
The test can be described thus: log2 fold change, soluble protein after heating vs DMSO (PISA); higher = thermal stabilisation; K562 lysate, 10 uM; active = over 0.2 and 3.5 SD of the protein, either way, in both replicates (recomputed). The method in brief: (§1)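 To prepare the extract, K562 pellets were dounce-homogenised in PBS pH 7.4 with 1 mM MgCl2, giving crude material at 1 mg/mL protein. This was treated with 10 μM compound for 30 min, then heated in aliquots for 3 min over 48°C-58°C before pooling and addition of NP-40 to 0.5% at 4°C. Centrifugation at 21,000xg for 90 min left soluble protein in the supernatant, which TMTpro 16plex LC-MS/MS quantified with equalised channel sums. Results are log-two fold changes in thermal stability compared with solvent controls, from duplicates.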
Take IDH3A (UniProt P50213): the log2 fold change is inactive: -0.008.

With IGSF3 (UniProt O75054), the log2 fold change is inactive: 0.03.

Consider ILKAP (UniProt Q9H0C8), for which the log2 fold change was inactive: 0.005.

For ICAM1 (UniProt P05362), the log2 fold change is inactive: 0.008.

IDH3B (UniProt O43837): the log2 fold change is inactive: -0.008.

Consider IGSF8 (UniProt Q969P0), for which the log2 fold change was inactive: -0.012.

For ILVBL (UniProt A1L0T0), the log2 fold change was inactive: 0.

As for IDE, A0A3B3ISG5, the log2 fold change is inactive: -0.007.

Consider ILF2 (UniProt Q12905), for which the log2 fold change is inactive: 0.018.

For HTATIP2 isoform 3 (UniProt Q9BUP3), the log2 fold change was inactive: 0.035.

As to IGF2BP1 (UniProt Q9NZI8), the log2 fold change was inactive: 0.042.

For HYOU1 (UniProt J3QL06), the log2 fold change was inactive: -0.056.

For the target IMPA1 isoform 3 (UniProt P29218), the log2 fold change is inactive: -0.014.

As for IDH1 (UniProt O75874), the log2 fold change was inactive: 0.013.

For the target HUWE1 (UniProt Q7Z6Z7), the log2 fold change is inactive: 0.01.

Consider HSPA8 (UniProt P11142), for which the log2 fold change is inactive: -0.024.

Turning to IL10RB (UniProt Q08334), the log2 fold change was inactive: -0.016.

As to IDH3G (UniProt P51553), the log2 fold change was inactive: -0.026.

Consider ICAM5 (UniProt Q9UMF0), for which the log2 fold change was inactive: 0.052.

Turning to IBA57 (UniProt Q5T440), the log2 fold change was inactive: 0.004.

On to IGBP1 (UniProt P78318), for which the log2 fold change was inactive: -0.017.

On to IFI30 (UniProt P13284), for which the log2 fold change is inactive: -0.007.

Consider HYPK (UniProt Q9NX55), for which the log2 fold change was inactive: 0.008.

Turning to IFITM3 (UniProt Q01628), the log2 fold change was inactive: -0.044.

For the target IFT74 (UniProt Q96LB3), the log2 fold change was inactive: 0.027.

In the case of INPP4A (UniProt Q96PE3), the log2 fold change is inactive: 0.032.

Take HYOU1 (UniProt Q9Y4L1): the log2 fold change was inactive: -0.012.

Turning to IDH2 (UniProt P48735), the log2 fold change is inactive: 0.044.

Turning to INPP5K (UniProt Q9BT40), the log2 fold change is inactive: 0.035.

Take INTS1 (UniProt Q8N201): the log2 fold change was inactive: 0.016.

IK (UniProt Q13123): the log2 fold change is inactive: 0.03.

With ILK (UniProt Q13418), the log2 fold change is inactive: 0.097.

On to HUS1 (UniProt O60921), for which the log2 fold change is inactive: 0.01.

Compound in another test: NC(=O)c1cnc(N[C@@H]2CCCC[C@@H]2N)nc1Nc1cccc(-n2nccn2)c1
The test is described as above. The method in brief:
as §1
As to IDH3A (UniProt P50213), the log2 fold change is inactive: -0.003.

For IGSF3 (UniProt O75054), the log2 fold change is inactive: 0.066.

Turning to ILKAP (UniProt Q9H0C8), the log2 fold change was inactive: 0.026.

For ICAM1 (UniProt P05362), the log2 fold change is inactive: -0.029.

On to IDH3B (UniProt O43837), for which the log2 fold change was inactive: -0.01.

Regarding IGSF8 (UniProt Q969P0), the log2 fold change was inactive: 0.021.

Take ILVBL (UniProt A1L0T0): the log2 fold change is inactive: -0.106.

Consider IDE, A0A3B3ISG5, for which the log2 fold change is inactive: 0.004.

Take ILF2 (UniProt Q12905): the log2 fold change was inactive: -0.006.

HTATIP2 isoform 3 (UniProt Q9BUP3): the log2 fold change was inactive: 0.026.

Take IGF2BP1 (UniProt Q9NZI8): the log2 fold change is inactive: -0.017.

Turning to HYOU1 (UniProt J3QL06), the log2 fold change was inactive: 0.094.

IMPA1 isoform 3 (UniProt P29218): the log2 fold change is inactive: 0.

Consider IDH1 (UniProt O75874), for which the log2 fold change was inactive: 0.01.

In the case of HUWE1 (UniProt Q7Z6Z7), the log2 fold change is inactive: -0.004.

Turning to HSPA8 (UniProt P11142), the log2 fold change was inactive: -0.008.

As to IL10RB (UniProt Q08334), the log2 fold change is inactive: 0.004.

Consider IDH3G (UniProt P51553), for which the log2 fold change was inactive: 0.029.

Take ICAM5 (UniProt Q9UMF0): the log2 fold change was inactive: 0.022.

For IBA57 (UniProt Q5T440), the log2 fold change is inactive: 0.009.

Consider IGBP1 (UniProt P78318), for which the log2 fold change is inactive: -0.005.

Consider IFI30 (UniProt P13284), for which the log2 fold change is inactive: 0.033.

Take HYPK (UniProt Q9NX55): the log2 fold change is inactive: -0.007.

As for IFITM3 (UniProt Q01628), the log2 fold change was inactive: -0.133.

For the target IFT74 (UniProt Q96LB3), the log2 fold change was inactive: 0.003.

In the case of INPP4A (UniProt Q96PE3), the log2 fold change is inactive: 0.015.

Turning to HYOU1 (UniProt Q9Y4L1), the log2 fold change is inactive: 0.

In the case of IDH2 (UniProt P48735), the log2 fold change was inactive: 0.011.

Regarding INPP5K (UniProt Q9BT40), the log2 fold change is inactive: 0.009.

Turning to INTS1 (UniProt Q8N201), the log2 fold change is inactive: -0.038.

Regarding IK (UniProt Q13123), the log2 fold change was inactive: -0.015.

In the case of ILK (UniProt Q13418), the log2 fold change was inactive: -0.022.

As for HUS1 (UniProt O60921), the log2 fold change is inactive: 0.016.

Compound in another test: NC1(c2ccc(-c3nc4ccn5c(=O)[nH]nc5c4cc3-c3ccccc3)cc2)CCC1
Described as above. The method in brief: as §1
As for IDH3A (UniProt P50213), the log2 fold change is inactive: -0.006.

As to IGSF3 (UniProt O75054), the log2 fold change was inactive: -0.027.

As to ILKAP (UniProt Q9H0C8), the log2 fold change is inactive: 0.044.

For ICAM1 (UniProt P05362), the log2 fold change was inactive: 0.012.

Take IDH3B (UniProt O43837): the log2 fold change was inactive: 0.014.

Turning to IGSF8 (UniProt Q969P0), the log2 fold change was inactive: -0.006.

For ILVBL (UniProt A1L0T0), the log2 fold change is inactive: -0.017.

For the target IDE, A0A3B3ISG5, the log2 fold change was inactive: 0.011.

With ILF2 (UniProt Q12905), the log2 fold change was inactive: -0.022.

As for HTATIP2 isoform 3 (UniProt Q9BUP3), the log2 fold change was inactive: -0.004.

On to IGF2BP1 (UniProt Q9NZI8), for which the log2 fold change is inactive: -0.028.

As for HYOU1 (UniProt J3QL06), the log2 fold change was inactive: -0.164.

With IMPA1 isoform 3 (UniProt P29218), the log2 fold change was inactive: 0.018.

For the target IDH1 (UniProt O75874), the log2 fold change was inactive: -0.011.

As to HUWE1 (UniProt Q7Z6Z7), the log2 fold change is inactive: 0.

For HSPA8 (UniProt P11142), the log2 fold change is inactive: 0.003.

Consider IL10RB (UniProt Q08334), for which the log2 fold change was inactive: -0.068.

For the target IDH3G (UniProt P51553), the log2 fold change is inactive: 0.006.

Take ICAM5 (UniProt Q9UMF0): the log2 fold change was inactive: -0.042.

On to IBA57 (UniProt Q5T440), for which the log2 fold change is inactive: -0.02.

For IGBP1 (UniProt P78318), the log2 fold change is inactive: 0.011.

On to IFI30 (UniProt P13284), for which the log2 fold change is inactive: -0.003.

With HYPK (UniProt Q9NX55), the log2 fold change was inactive: 0.01.

For IFITM3 (UniProt Q01628), the log2 fold change was inactive: -0.051.

Consider IFT74 (UniProt Q96LB3), for which the log2 fold change was inactive: -0.101.

As for INPP4A (UniProt Q96PE3), the log2 fold change is inactive: 0.032.

As for HYOU1 (UniProt Q9Y4L1), the log2 fold change was inactive: -0.007.

As for IDH2 (UniProt P48735), the log2 fold change is inactive: 0.004.

In the case of INPP5K (UniProt Q9BT40), the log2 fold change was inactive: 0.117.

Turning to INTS1 (UniProt Q8N201), the log2 fold change is inactive: 0.011.

On to IK (UniProt Q13123), for which the log2 fold change was inactive: 0.01.

As to ILK (UniProt Q13418), the log2 fold change was inactive: -0.036.

In the case of HUS1 (UniProt O60921), the log2 fold change was inactive: -0.022.
